Assay results: the supplement of paper PMC10849652
This is one part of the list.

Chains of the proteins cited; added tags and fusions are not shown. Lines headed by an entry give the natural chain unless they say otherwise; changes in a name come on top.
UniProt O75586: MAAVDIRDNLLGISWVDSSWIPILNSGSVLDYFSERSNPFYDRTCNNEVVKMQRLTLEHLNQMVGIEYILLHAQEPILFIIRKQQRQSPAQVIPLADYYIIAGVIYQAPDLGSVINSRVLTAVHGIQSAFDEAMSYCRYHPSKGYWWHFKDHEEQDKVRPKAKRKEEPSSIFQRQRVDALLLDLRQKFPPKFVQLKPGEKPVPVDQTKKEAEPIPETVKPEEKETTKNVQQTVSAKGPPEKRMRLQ
UniProt Q9NS73: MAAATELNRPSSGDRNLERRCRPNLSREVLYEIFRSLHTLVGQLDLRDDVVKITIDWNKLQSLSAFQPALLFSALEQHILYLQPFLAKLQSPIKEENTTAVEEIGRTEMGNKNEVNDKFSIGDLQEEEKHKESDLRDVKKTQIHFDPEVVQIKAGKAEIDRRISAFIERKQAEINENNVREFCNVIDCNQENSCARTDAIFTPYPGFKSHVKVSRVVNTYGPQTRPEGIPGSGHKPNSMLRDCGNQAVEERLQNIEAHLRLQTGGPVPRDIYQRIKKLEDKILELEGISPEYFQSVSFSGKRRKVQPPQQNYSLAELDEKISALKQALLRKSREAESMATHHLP
UniProt Q8TDD5: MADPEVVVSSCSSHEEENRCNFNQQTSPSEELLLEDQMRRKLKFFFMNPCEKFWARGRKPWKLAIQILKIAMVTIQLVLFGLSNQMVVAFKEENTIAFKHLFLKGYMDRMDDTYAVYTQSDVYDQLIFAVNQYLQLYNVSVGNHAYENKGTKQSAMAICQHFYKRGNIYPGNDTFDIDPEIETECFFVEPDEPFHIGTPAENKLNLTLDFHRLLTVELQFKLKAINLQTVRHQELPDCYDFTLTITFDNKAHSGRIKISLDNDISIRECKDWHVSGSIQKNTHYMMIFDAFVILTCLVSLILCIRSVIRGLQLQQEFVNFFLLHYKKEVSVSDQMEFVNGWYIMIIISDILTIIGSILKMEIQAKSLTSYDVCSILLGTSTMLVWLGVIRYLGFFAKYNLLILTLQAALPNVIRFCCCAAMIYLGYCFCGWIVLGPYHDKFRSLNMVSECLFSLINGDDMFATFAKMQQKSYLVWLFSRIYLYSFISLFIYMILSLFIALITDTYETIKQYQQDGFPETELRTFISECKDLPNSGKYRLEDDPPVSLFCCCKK
UniProt Q9P086: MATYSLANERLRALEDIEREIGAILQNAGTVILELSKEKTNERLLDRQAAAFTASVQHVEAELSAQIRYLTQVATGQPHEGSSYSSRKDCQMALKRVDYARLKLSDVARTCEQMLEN
UniProt Q9Y4C4: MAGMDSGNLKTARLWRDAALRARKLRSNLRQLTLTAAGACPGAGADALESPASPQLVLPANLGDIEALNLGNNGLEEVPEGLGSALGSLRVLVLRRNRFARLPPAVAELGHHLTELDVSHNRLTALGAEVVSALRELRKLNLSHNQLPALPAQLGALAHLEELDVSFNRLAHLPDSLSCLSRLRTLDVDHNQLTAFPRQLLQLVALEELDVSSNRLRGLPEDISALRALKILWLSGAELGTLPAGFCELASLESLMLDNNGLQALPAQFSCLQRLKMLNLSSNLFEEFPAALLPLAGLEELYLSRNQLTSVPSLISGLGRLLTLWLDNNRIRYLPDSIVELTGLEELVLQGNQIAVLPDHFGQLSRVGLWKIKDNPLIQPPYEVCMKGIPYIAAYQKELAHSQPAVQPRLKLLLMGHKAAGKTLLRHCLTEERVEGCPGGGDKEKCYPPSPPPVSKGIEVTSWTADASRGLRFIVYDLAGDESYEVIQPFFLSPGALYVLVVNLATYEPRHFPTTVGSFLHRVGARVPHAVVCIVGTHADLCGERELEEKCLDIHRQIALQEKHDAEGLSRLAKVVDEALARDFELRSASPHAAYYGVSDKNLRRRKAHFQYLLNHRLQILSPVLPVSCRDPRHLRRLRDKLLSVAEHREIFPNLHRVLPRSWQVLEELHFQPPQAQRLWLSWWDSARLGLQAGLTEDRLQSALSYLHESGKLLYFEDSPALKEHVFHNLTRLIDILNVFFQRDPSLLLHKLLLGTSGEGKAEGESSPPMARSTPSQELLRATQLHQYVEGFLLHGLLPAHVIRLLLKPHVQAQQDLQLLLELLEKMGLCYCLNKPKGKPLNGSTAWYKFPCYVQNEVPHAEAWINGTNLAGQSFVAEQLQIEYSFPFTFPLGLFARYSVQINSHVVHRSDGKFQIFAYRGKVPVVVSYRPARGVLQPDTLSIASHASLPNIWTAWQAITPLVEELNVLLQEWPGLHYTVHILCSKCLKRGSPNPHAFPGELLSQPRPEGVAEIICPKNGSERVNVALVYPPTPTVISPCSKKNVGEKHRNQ
UniProt Q8NHS3: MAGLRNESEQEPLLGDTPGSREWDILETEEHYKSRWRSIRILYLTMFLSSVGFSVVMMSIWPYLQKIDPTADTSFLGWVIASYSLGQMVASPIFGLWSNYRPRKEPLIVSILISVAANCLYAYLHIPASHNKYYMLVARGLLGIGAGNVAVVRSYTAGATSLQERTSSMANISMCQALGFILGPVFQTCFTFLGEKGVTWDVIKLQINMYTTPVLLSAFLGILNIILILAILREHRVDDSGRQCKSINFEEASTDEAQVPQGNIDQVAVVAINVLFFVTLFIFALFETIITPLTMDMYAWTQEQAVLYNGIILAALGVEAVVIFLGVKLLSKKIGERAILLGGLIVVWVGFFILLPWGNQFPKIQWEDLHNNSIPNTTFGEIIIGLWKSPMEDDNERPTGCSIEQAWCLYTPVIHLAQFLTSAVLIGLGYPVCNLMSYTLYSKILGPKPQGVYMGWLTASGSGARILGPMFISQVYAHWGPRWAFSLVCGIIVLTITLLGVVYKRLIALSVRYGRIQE
UniProt Q9NWA0: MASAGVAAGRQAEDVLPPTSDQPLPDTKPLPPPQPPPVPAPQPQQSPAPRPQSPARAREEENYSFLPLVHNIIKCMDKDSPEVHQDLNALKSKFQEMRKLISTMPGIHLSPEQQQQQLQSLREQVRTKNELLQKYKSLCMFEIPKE
UniProt Q5U5Q3: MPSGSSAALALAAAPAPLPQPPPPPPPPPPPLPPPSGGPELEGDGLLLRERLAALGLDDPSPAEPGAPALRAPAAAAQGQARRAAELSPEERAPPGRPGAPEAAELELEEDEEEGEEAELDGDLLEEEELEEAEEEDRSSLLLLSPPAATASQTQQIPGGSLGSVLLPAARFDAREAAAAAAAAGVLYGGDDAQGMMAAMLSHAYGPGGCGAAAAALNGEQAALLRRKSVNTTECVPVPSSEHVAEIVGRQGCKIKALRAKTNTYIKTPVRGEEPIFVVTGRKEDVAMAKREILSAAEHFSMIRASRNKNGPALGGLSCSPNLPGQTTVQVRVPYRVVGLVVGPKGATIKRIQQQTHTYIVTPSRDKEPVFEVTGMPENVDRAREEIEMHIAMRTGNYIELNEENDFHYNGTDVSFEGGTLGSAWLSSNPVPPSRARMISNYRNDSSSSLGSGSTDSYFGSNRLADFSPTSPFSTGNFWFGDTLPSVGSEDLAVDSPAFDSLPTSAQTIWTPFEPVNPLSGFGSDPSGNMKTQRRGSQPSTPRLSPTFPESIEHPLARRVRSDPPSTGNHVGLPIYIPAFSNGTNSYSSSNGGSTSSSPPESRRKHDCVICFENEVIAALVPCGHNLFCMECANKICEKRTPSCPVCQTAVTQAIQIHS
UniProt Q9GZU1, whole entry, looked up: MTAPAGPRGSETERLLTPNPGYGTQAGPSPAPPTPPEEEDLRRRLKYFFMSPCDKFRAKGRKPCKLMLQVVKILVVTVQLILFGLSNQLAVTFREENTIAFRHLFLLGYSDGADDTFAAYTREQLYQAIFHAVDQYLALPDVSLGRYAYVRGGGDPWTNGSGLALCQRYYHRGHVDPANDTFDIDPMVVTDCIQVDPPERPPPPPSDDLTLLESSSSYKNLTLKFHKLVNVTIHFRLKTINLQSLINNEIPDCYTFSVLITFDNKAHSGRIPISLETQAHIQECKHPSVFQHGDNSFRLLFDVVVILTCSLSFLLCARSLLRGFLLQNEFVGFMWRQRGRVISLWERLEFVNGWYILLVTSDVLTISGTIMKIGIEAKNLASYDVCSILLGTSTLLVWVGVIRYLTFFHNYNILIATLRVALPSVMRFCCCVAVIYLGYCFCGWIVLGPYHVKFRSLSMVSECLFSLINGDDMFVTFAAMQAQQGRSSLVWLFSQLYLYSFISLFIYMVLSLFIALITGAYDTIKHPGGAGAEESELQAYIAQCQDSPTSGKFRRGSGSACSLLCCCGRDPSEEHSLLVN
UniProt Q9NX70: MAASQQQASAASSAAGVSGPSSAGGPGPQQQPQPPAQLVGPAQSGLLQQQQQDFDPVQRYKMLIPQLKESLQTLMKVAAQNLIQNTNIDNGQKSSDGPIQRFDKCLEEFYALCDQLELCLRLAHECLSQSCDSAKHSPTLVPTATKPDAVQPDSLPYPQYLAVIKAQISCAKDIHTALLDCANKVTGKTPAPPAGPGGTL
UniProt Q02078: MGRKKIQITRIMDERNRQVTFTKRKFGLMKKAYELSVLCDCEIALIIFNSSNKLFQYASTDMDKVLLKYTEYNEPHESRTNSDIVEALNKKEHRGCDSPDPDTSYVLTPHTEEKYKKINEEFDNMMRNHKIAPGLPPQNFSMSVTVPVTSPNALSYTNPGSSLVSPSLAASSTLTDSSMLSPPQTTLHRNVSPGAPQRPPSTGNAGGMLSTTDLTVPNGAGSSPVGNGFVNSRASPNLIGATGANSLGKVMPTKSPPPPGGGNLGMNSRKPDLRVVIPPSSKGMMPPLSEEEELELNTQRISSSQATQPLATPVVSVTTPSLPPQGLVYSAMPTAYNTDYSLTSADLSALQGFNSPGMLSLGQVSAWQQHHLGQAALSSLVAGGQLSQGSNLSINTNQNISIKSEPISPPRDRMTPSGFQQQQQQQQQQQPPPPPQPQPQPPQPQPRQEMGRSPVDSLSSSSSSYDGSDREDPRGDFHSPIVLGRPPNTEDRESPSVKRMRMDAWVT
UniProt Q9Y6X3: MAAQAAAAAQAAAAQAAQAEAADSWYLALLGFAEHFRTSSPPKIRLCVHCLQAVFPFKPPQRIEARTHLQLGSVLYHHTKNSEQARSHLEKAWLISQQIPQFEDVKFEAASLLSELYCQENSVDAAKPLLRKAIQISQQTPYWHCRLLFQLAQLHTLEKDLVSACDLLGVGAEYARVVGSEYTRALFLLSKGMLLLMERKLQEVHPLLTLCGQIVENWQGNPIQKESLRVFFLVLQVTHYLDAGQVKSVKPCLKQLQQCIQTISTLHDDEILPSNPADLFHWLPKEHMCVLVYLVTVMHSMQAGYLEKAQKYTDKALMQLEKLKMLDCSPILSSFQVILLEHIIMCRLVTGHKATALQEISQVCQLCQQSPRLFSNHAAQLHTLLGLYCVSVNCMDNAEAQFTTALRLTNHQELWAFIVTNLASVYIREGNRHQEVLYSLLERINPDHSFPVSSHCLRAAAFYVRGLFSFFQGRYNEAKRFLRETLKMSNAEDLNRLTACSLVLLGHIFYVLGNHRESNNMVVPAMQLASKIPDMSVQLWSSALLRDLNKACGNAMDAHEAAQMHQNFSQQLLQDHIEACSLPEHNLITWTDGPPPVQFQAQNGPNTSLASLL
UniProt Q9NR56: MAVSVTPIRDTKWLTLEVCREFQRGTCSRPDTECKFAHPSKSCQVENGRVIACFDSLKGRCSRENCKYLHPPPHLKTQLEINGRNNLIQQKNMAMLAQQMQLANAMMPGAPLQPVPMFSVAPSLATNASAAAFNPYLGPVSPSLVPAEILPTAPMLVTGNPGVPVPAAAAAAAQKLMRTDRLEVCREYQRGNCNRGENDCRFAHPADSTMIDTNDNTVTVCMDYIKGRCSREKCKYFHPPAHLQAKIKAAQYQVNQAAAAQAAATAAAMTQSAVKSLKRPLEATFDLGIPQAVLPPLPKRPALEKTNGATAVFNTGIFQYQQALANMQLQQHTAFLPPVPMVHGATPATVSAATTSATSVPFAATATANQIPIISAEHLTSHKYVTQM
UniProt Q9Y3C7: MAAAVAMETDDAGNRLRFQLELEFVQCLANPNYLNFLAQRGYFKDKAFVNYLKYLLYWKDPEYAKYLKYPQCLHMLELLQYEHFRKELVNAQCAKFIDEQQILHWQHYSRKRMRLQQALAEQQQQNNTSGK
UniProt Q13503: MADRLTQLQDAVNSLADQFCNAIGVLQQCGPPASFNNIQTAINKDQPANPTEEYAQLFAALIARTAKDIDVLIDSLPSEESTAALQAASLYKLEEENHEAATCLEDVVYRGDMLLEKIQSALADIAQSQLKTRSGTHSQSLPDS
UniProt Q9H1A3: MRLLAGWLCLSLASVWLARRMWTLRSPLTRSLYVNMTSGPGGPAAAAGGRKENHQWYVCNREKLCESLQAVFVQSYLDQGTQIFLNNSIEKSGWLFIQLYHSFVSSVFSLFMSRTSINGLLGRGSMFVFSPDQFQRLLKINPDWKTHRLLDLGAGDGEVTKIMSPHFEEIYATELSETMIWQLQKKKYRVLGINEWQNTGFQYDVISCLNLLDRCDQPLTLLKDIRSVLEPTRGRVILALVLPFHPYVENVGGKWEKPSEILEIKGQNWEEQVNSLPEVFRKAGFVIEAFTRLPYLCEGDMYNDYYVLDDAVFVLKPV

compound: O=C(O)c1ccc2c(c1)nc(Nc1cccc(Cl)c1)c1ccncc12 [silmitasertib]; test: log2 fold change, soluble protein after heating vs DMSO (PISA); higher = thermal stabilisation; K562 cells, 10 uM, 30 min; active = over 0.2 and 3.5 SD of the protein, either way, in both replicates (recomputed)
Procedure, shortened: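 Values are thermal stability changes relative to control samples and are taken from duplicates. They are stated as log2 fold changes. Before quantification by TMTpro 16plex LC-MS/MS with equalised channel sums, K562 cells at 2×10^6 cells/mL were treated with 10 μM compound for 30 min, heated in aliquots for 3 min across 48°C-58°C, pooled, extracted in PBS with 0.5% NP-40 at 4°C, and centrifuged at 21,000xg for 90 min to give the soluble supernatant.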

log2 fold change, inactive:
MED6 (UniProt O75586) 0.156
MBIP (UniProt Q9NS73) -0.069
MCOLN3 (UniProt Q8TDD5) 0.083
METTL26 (UniProt Q96S19) 0.027
MED11 (UniProt Q9P086) -0.084
MFHAS1 (UniProt Q9Y4C4) 0.029
MFSD8 (UniProt Q8NHS3) 0.069
MED9 (UniProt Q9NWA0) 0.051
MEX3C (UniProt Q5U5Q3) 0.113
MCOLN1 (UniProt Q9GZU1) 0.14
MFSD9 (UniProt Q8NBP5) -0.028
MED19 (UniProt A0JLT2) -0.02
MED29 (UniProt Q9NX70) 0.133
MEF2A isoform 2 (UniProt Q02078) -0.067
MAU2 (UniProt Q9Y6X3) 0.09
MBNL1 isoform 5 (UniProt Q9NR56) 0.033
MCM10 (UniProt Q7L590) -0.129
MED31 (UniProt Q9Y3C7) 0.03
MBLAC1 (UniProt A4D2B0) -0.082
MED21 (UniProt Q13503) 0.021
METTL9 (UniProt Q9H1A3) 0.104

2 neighbouring records out of the list so far:
log2 fold change, inactive:
MED11 (UniProt Q9P086) -0.084
MFHAS1 (UniProt Q9Y4C4) 0.029
